± gives the standard deviation of the averaged measurements. This is a selection; strong and weak results do not stand in their true shares.
Legend:
Assay in all cases: NP40-soluble protein abundance relative to vehicle (solubility fold change) (ratio); higher = more soluble protein in presence of ATP
ATN1 = molecular target: T1, ATN1 (UniProt P54259)
T1 sequence (whole entry): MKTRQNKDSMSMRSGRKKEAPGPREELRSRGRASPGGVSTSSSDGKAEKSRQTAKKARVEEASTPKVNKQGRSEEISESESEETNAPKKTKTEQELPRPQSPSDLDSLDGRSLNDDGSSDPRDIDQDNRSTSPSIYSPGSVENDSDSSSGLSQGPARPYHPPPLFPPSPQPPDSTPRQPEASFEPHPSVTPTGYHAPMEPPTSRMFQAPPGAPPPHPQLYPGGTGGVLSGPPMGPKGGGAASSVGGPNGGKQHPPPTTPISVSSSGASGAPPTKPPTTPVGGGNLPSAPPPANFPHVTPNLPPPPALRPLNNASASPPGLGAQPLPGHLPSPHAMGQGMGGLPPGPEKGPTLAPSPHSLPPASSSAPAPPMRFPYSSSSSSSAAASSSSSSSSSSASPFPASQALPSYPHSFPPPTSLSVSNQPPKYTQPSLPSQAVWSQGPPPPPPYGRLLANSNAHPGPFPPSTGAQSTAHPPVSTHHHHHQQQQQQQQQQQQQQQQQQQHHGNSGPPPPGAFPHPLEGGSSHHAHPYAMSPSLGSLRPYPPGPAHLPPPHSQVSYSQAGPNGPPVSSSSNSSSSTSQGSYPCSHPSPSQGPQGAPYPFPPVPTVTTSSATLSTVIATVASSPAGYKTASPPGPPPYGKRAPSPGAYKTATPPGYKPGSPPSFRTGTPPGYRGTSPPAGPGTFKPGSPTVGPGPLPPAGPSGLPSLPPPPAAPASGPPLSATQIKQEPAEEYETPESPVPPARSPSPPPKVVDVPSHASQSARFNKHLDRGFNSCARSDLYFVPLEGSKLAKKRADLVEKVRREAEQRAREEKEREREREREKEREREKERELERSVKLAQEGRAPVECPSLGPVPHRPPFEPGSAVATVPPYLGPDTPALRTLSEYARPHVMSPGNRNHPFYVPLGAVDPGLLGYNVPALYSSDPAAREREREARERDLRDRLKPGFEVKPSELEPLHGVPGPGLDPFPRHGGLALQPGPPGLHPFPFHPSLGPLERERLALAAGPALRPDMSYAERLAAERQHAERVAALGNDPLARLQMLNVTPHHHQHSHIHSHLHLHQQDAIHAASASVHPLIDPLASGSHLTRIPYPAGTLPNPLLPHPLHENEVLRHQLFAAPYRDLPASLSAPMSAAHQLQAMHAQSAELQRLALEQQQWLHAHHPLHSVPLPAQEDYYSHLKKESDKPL
Procedure, shortened: (§1)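 Jurkat crude lysate (Dounce-homogenised) was treated with eight concentrations from 0.1 to 10 mM for 10 min at room temperature, then 3 min at 37 °C. It was solubilised with 0.8% NP40 and benzonase (60 min, 4 °C) and ultracentrifuged, and the supernatant was TMT-labelled for LC-MS/MS. Intensities were vsn-normalised, and the value is the fold change against the NP40-processed vehicle per replicate, from three independent experiments.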

BLVRA = molecular target: T2, BLVRA (UniProt P53004)
T2 sequence (whole entry): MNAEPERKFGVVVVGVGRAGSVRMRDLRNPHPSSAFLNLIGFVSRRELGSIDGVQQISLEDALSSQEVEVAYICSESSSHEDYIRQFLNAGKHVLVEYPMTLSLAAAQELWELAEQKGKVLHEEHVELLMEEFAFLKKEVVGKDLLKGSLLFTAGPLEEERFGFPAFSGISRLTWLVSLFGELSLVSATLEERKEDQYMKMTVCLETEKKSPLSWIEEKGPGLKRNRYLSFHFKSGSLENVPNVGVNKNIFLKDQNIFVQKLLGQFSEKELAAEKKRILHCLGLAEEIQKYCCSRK
Procedure, shortened: as §1

HADHB = molecular target: T3, HADHB (UniProt P55084)
T3 sequence (whole entry): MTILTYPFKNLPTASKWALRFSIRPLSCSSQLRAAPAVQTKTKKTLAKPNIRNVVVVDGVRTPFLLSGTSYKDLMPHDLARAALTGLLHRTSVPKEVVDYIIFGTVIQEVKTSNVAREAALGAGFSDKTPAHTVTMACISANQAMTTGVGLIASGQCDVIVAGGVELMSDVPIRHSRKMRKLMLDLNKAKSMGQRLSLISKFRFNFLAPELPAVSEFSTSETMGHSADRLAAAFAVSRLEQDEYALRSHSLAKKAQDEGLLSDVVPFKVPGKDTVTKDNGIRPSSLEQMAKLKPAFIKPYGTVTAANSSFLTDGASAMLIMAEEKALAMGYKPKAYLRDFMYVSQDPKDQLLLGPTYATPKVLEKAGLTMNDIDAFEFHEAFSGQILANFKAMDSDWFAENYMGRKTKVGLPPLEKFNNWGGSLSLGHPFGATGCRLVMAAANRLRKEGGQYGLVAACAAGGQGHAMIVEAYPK
Procedure, shortened: as §1

PURA = molecular target: T4, PURA (UniProt Q00577)
T4 sequence (whole entry): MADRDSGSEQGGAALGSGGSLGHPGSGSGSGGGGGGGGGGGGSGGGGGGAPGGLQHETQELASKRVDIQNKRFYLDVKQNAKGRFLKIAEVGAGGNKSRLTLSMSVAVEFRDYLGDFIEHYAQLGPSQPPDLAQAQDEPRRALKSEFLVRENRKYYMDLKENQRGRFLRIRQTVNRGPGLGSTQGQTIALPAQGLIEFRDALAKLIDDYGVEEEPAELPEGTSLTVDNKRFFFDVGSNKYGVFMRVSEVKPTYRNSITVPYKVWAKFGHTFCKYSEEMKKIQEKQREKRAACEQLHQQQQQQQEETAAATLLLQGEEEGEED
Procedure, shortened: as §1

SLC12A2 = molecular target: T5, SLC12A2 (UniProt P55011)
T5 sequence (whole entry): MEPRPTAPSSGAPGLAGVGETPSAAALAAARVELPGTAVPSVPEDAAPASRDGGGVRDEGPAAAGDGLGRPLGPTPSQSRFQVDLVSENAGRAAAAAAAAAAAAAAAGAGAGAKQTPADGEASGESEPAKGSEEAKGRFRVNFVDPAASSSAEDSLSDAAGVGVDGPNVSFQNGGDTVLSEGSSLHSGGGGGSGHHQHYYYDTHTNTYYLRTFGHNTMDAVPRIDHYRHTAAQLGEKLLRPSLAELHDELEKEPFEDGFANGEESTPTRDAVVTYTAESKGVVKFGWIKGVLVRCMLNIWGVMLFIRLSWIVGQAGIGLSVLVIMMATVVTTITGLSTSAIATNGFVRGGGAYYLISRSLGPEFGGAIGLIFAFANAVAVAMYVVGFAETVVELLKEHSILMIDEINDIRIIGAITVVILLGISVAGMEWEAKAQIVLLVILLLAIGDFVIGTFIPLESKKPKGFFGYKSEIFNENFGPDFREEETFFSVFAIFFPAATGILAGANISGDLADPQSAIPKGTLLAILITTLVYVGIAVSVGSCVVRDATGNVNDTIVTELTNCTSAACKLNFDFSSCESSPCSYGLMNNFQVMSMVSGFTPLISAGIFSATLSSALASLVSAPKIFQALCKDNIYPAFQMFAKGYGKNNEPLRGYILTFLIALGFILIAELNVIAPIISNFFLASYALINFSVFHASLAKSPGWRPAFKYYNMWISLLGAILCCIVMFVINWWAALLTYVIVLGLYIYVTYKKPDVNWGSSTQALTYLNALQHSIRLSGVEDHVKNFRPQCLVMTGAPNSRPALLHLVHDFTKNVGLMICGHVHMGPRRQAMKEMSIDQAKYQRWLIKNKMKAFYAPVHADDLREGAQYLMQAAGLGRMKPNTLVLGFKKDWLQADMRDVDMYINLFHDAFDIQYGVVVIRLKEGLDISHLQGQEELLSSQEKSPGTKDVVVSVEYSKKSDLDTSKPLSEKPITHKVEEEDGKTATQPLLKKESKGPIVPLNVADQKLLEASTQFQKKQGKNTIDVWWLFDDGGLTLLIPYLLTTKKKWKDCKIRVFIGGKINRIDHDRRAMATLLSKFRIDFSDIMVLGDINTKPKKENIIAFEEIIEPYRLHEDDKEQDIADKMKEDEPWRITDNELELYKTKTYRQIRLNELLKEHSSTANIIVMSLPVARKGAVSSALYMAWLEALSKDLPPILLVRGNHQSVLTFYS
Procedure, shortened: as §1

[1] = molecular target: T6, UniProt P55036 and related entries
T6 sequence (whole entry): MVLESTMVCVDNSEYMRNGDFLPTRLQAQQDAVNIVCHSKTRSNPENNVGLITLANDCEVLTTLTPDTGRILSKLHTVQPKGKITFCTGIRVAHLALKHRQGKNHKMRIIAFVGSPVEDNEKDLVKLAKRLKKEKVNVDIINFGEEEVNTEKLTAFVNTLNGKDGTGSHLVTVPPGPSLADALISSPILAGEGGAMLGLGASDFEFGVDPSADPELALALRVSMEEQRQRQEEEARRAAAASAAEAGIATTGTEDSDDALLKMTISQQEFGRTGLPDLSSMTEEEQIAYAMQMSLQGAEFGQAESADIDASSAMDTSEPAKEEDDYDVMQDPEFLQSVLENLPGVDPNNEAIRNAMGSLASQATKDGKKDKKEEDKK
Procedure, shortened: as §1

[2] = molecular target: T7, UniProt P57768 and related entries
T7 sequence (whole entry): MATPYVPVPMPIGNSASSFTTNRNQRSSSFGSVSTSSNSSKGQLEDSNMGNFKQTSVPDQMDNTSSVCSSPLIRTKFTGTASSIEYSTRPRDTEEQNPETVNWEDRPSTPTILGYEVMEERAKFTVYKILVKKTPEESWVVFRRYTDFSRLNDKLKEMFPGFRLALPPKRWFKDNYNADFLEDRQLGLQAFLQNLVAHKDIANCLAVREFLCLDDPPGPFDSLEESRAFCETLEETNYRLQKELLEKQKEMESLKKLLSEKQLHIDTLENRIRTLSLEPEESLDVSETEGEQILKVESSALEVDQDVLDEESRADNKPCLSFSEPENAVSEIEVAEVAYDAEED
Procedure, shortened: as §1

Nc1ncnc2c1ncn2[C@@H]1O[C@H](COP(=O)(O)OP(=O)(O)OP(=O)(O)O)[C@@H](O)[C@H]1O [adenosine triphosphate]
NP40-soluble protein abundance (ATN1; concentration: 1mM): 0.945 ± 0.11 | NP40-soluble protein abundance (ATN1; concentration: 2mM): 0.952 ± 0.12 | NP40-soluble protein abundance (ATN1; concentration: 4mM): 1.0009 ± 0.00027 | NP40-soluble protein abundance (ATN1; concentration: 6mM): 1.06 ± 0.071 | NP40-soluble protein abundance (ATN1; concentration: 8mM): 0.941 ± 0.042 | NP40-soluble protein abundance (ATN1; concentration: 10mM): 1 ± 0.054 | NP40-soluble protein abundance (BLVRA; concentration: 1mM): 1.01 ± 0.1 | NP40-soluble protein abundance (BLVRA; concentration: 2mM): 0.988 ± 0.095 | NP40-soluble protein abundance (BLVRA; concentration: 4mM): 0.946 ± 0.086 | NP40-soluble protein abundance (BLVRA; concentration: 6mM): 0.927 ± 0.15 | NP40-soluble protein abundance (BLVRA; concentration: 8mM): 0.991 ± 0.087 | NP40-soluble protein abundance (BLVRA; concentration: 10mM): 0.947 ± 0.078 | NP40-soluble protein abundance (HADHB; concentration: 1mM): 0.9862 ± 0.0091 | NP40-soluble protein abundance (HADHB; concentration: 2mM): 0.965 ± 0.029 | NP40-soluble protein abundance (HADHB; concentration: 4mM): 0.932 ± 0.035 | NP40-soluble protein abundance (HADHB; concentration: 6mM): 0.942 ± 0.033 | NP40-soluble protein abundance (HADHB; concentration: 8mM): 0.955 ± 0.052 | NP40-soluble protein abundance (HADHB; concentration: 10mM): 0.966 ± 0.056 | NP40-soluble protein abundance (PURA; concentration: 1mM): 0.964 ± 0.043 | NP40-soluble protein abundance (PURA; concentration: 2mM): 0.935 ± 0.048 | NP40-soluble protein abundance (PURA; concentration: 4mM): 0.923 ± 0.076 | NP40-soluble protein abundance (PURA; concentration: 6mM): 0.935 ± 0.041 | NP40-soluble protein abundance (PURA; concentration: 8mM): 0.913 ± 0.081 | NP40-soluble protein abundance (PURA; concentration: 10mM): 0.923 ± 0.045 | NP40-soluble protein abundance (SLC12A2; concentration: 1mM): 0.947 ± 0.023 | NP40-soluble protein abundance (SLC12A2; concentration: 2mM): 0.9234 ± 0.0085 | NP40-soluble protein abundance (SLC12A2; concentration: 4mM): 0.941 ± 0.033 | NP40-soluble protein abundance (SLC12A2; concentration: 6mM): 0.947 ± 0.058 | NP40-soluble protein abundance (SLC12A2; concentration: 8mM): 0.961 ± 0.023 | NP40-soluble protein abundance (SLC12A2; concentration: 10mM): 0.932 ± 0.023 | NP40-soluble protein abundance ([1]; concentration: 1mM): 0.933 ± 0.052 | NP40-soluble protein abundance ([1]; concentration: 2mM): 0.897 ± 0.018 | NP40-soluble protein abundance ([1]; concentration: 4mM): 0.888 ± 0.029 | NP40-soluble protein abundance ([1]; concentration: 6mM): 0.935 ± 0.11 | NP40-soluble protein abundance ([1]; concentration: 8mM): 0.901 ± 0.046 | NP40-soluble protein abundance ([1]; concentration: 10mM): 0.889 ± 0.046 | NP40-soluble protein abundance ([2]; concentration: 1mM): 0.9965 ± 0.0073 | NP40-soluble protein abundance ([2]; concentration: 2mM): 1.02 ± 0.043 | NP40-soluble protein abundance ([2]; concentration: 4mM): 1.01 ± 0.038 | NP40-soluble protein abundance ([2]; concentration: 6mM): 0.975 ± 0.054 | NP40-soluble protein abundance ([2]; concentration: 8mM): 1.01 ± 0.014 | NP40-soluble protein abundance ([2]; concentration: 10mM): 0.988 ± 0.071

— the supplement of paper PMC6411743
